At least one compound was matched to its structure with a doubt left. Ends that are not written are not given here.
Columns and labels:
[1] = tested on: bovine aortic endothelial cells (BAEC); experiment: NO production by endothelial cells on beads, photometric oxyhemoglobin to methemoglobin assay; assay type: cell-based; conditions: for NO production above baseline levels: 10^−6 and 10^−5 M, 3 min periods, basic buffer
Source text: NO oxidize; oxyhemoglobin (HbO2) to methemoglobin (metHb) in the following reaction HbO2+NO−metHb+NO3. The amount of NO produced by endothelial cells was quantified by measuring the change in absorbance as HbO2 oxidizes to metHb. Oxyhemoglobin has a absorbance peak at 415 nm, while methb has a 406 nm absorbance peak. By subtracting the absorbance of metHb from HbO2, the concentration of NO can be assessed. The general method was patterned after that of Feelisch et al., (Biochem. and Biophy. Res. Comm. 1991; 180, Nc I:286-293).
The effects of pravastatin on activity of endothelial cells in producing NO were compared with those of actetylcholine, which is known to specifically stimulate NO production by NOS activity.

[2] = tested on: cultured bovine aortic EC; experiment: DOX as NOS agonist: NO production by oxyhemoglobin/methemoglobin conversion and NO sensitive electrode; assay type: cell-based; conditions: acetylcholine
Description: In fact, a wide variety of vasoactive agents (e.g., bradykinin, muscarinic agonists and growth factors) which increase tPA levels are also agonists of nitric oxide synthase (NOS). DOX activity as a NOS agonist was investigated in cultured bovine aortic EC using two methods to assess NO production: conversion of oxyhemoglobin to methamoglobin and a NO sensitive electrode. […]
Nitric Oxide Measurements. Methemoglobin—The effect of DOX on NO production in EC was determined using a photometric assay for conversion of oxyhemoglobin to methemoglobin. […] Perfusate is then directed into a flow-through cuvette in a dual wavelength spectrophotometer and change in absorbency (415/405 nm) is measured. Experimental stimulation was carried out by 3 min infusion periods of DOX added to buffer perfusion to yield final concentrations of 10^−7 and 10^−6 M. For analysis, we determined the area under the curve for the change in absorbency response/min caused by DOX assuming a one to one correspondence for NO and metHb production, the known stoichiometric balance for this reaction. NO production was measured with a NO meter connected to a polargraphic NO electrode as previously described. […]

y^+ transporter = experiment: y+ transport of [3H]-LA in cells exposed to NOS agonists or NO donors, sodium-free uptake buffer; assay type: cell-based, bovine; conditions: BK 1αM
Description: Effect of NOS agonists on cellular uptake of LA.
Effect of NO donors on cellular uptake of LA.
In order to confirm whether the reduction in cellular uptake of [^3H]-LA was due to NO released from SNAP, experiments were performed using another NO donor, DPTA-NONOate. Unlike SNAP, which donates large amounts of NO over a short time period (t1/2˜10 minutes), the use of DPTA-NONOate allows for a slower (t1/2˜5 hours), more sustained release of NO that is constant over time.

Compound	NO production above baseline levels [1]	increase in NO production between 10^−5 and 10^−6 M acetylcholine ([1]; basic buffer containing 5×10^−5M L-arginine)	NO production [2]	increase of cellular transport of L-arginine (y^+ transporter; 15 minute exposure (maximum)) [%]	increase of cellular transport of L-arginine (y^+ transporter; 30 minutes) [%]	increase of cellular transport of L-arginine (y^+ transporter; 60 minutes) [%]	increase of cellular uptake of L-arginine (y^+ transporter; 2 hour exposure) [%]	increase of cellular uptake of L-arginine (y^+ transporter; 3 hour exposure) [%]	increase of cellular uptake of L-arginine (y^+ transporter; 5 hour exposure) [%]
CC(=O)OCC[N+](C)(C)C [acetylcholine]	concentration-related increase	two fold	dose-related increase						
CC[C@H](C)C(=O)O[C@H]1C[C@H](O)C=C2C=C[C@H](C)[C@H](CC[C@@H](O)C[C@@H](O)CC(=O)O)[C@H]21 [pravastatin]	concentration-related increase								
RPPGFSPFR [bradykinin]				42	39	16	38	19	22
